Reference: publication doi:10.1101/2024.01.10.574971
These are yes or no findings as the source states them, for the method shown. In cells and extracts the contact can be indirect. Some entries that bind do so weakly or less than the wild type.

Sequences of proteins named here, by UniProt entry; tags and fusion partners are left off.
UniProt Q99814: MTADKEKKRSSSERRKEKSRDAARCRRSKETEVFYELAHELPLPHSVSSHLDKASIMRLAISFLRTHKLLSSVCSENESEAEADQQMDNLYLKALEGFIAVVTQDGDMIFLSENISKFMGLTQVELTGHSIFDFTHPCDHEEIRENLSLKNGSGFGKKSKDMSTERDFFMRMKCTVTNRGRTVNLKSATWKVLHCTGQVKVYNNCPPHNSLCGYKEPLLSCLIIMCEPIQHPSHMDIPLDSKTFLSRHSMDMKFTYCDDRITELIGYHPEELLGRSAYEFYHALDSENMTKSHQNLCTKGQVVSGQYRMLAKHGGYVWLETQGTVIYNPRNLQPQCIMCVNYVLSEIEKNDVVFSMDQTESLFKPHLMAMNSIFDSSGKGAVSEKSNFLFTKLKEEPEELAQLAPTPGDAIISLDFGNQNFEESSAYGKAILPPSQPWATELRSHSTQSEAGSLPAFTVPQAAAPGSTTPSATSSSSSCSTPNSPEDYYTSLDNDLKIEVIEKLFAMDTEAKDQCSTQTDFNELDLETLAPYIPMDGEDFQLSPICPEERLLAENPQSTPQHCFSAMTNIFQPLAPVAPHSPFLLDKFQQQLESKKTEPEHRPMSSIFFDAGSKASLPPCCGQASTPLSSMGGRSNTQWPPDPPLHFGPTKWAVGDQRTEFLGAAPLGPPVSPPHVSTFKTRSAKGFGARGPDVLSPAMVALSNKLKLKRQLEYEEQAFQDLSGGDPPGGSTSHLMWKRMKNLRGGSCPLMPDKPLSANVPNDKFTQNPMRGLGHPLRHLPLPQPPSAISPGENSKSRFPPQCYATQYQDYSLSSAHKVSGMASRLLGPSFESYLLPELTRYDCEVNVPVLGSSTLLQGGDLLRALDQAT
UniProt Q16665: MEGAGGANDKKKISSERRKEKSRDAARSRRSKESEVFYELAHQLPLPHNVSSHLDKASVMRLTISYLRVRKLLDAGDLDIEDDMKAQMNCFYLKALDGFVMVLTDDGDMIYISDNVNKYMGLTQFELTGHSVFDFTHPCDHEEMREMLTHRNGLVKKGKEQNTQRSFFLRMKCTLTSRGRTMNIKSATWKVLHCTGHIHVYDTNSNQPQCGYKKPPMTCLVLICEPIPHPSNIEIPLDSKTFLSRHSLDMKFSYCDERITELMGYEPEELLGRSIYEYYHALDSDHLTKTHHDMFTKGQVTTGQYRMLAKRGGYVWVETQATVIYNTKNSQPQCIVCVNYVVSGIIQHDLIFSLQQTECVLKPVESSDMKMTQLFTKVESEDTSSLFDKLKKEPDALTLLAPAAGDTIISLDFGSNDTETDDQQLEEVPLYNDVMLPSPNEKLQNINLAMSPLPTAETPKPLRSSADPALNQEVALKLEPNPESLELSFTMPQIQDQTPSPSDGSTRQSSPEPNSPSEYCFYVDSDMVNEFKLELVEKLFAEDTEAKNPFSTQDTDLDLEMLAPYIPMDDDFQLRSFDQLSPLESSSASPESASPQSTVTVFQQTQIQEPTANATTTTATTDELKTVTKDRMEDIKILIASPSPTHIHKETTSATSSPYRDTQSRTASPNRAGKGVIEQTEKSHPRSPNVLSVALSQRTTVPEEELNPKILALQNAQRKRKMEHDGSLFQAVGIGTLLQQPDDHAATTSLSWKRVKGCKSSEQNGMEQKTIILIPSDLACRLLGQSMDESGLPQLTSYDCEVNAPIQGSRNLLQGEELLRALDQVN

Biological target: T1, USP43 (endogenous) (human (endogenous in HeLa)) (UniProt Q70EL4)
T1 sequence: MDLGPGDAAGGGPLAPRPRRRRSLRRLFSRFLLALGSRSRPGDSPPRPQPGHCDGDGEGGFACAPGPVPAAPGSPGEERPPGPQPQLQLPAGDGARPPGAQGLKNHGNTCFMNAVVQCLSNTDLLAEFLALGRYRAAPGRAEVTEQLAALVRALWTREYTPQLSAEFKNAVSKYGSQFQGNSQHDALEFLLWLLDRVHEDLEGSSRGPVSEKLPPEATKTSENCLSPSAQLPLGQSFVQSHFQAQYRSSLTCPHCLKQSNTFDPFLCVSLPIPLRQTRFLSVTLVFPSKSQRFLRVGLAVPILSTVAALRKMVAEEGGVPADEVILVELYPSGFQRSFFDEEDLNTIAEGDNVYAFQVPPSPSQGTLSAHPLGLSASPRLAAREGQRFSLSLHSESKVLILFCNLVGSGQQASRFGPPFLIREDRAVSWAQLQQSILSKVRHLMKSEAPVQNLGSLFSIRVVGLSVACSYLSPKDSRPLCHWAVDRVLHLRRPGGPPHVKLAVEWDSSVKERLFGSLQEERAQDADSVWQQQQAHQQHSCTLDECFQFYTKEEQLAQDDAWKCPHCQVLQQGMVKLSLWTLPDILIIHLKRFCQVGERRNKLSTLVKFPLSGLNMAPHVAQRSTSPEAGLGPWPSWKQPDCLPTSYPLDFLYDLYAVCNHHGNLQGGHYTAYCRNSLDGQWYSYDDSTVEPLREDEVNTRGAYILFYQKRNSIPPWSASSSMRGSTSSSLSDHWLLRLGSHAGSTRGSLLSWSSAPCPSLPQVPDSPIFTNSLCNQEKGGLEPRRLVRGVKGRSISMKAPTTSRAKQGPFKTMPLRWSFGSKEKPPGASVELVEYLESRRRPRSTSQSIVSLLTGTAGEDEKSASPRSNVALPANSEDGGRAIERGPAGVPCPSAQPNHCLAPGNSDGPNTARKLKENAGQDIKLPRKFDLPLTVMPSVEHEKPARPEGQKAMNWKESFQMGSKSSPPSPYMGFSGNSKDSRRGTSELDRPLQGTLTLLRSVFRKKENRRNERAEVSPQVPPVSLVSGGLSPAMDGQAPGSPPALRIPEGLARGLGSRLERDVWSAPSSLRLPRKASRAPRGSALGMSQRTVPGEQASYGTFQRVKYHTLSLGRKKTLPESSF
Assay: co-IP

binding | Substance
no binding | HIF-2α (endogenous) (from UniProt Q99814 1-870)
binds | HIF-1α (endogenous) (from UniProt Q16665 1-826)
